Assay results as given in PubChem BioAssay AID504444 (National Center for Advancing Translational Sciences (NCATS), 2011).
The whole screen tested about 360,000 compounds, of which about 7,500 (2.1%) were called active. The shares of active, inactive and inconclusive entries below differ from those in the screen. The call rests on the fitted dose curve; in most records, active means well fitted inhibition curve with a large enough effect; inconclusive means small, poorly fitted or top-dose-only effect, or effect the other way; inactive means flat fitted curve, though single readings scatter. Potencies of inconclusive entries are doubtful fits and often do not repeat.

test: Nrf2 qHTS screen for inhibitors; conditions: A549 ARE-Fluc reporter, luciferase luminescence, 18-24 h; series mostly up to 46 µM; further: nearly all actives have a fitted effect of over 60% in size
Summary of the method: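 Two sequential reads on A549 ARE_Fluc cells exposed to compound for 18-24 h: a CellTiter-Fluor fluorescence read for viability, then a luciferase luminescence read for Nrf2/ARE activity.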
Potency means the concentration at half of the fitted maximal effect.

Structure (SMILES)	Potency
NS(=O)(=O)c1ccc(Cl)cc1[N+](=O)[O-]	inconclusive: 25.9 µM [falling, single point]
O=C(Nc1onc2c1CCCC2)c1ccc(Cl)cc1	inconclusive: 0.116 µM [activator, full curve, poor fit]
COc1ccc(C(=O)NC2CCN(C(=S)NCCc3ccccc3)CC2)cc1	inconclusive: 18.4 µM [falling, single point]
Nn1c(SCC(=O)Nc2cccc(Br)c2)nnc1C1CC1	inconclusive: 29.1 µM [falling, single point]
Cc1cnc(-c2nnc(N(C)C(=O)C3CCOC3)s2)cn1 (configuration not stated)	inactive
CC(=O)c1cccc(NS(=O)(=O)c2ccc(N/C=C\C(=O)c3ccc(C)cc3)cc2)c1	inconclusive: 32.6 µM [falling, single point]
Cc1ccc(-n2c3nc(=O)[nH]c(=O)c-3cc3c(Cl)cccc32)cc1	inconclusive: 20.6 µM [falling, partial curve, poor fit]
CC1=CC(C)(C)N(C(=O)CSc2nnc(-c3ccc(C)cc3)o2)c2ccc(C)cc21	inconclusive: 25.9 µM [falling, single point]
CCN1CCN(c2ccc(S(=O)(=O)N3CCCCC3)cc2NC(=O)C(C)Oc2ccc(F)cc2)CC1 (configuration not stated)	inconclusive: 29.1 µM [falling, single point]
O=C(O)c1ccc(Nc2c3ccccc3nc3ccccc23)cc1	inconclusive: 10.3 µM [falling, partial curve, poor fit]
O=C(Cc1ccc(Cl)cc1)c1c[nH]c(C(=O)NCc2cccnc2)c1	inactive
COc1ccc(OC)c2[nH]c(=O)c(CCNC(=S)NC(C)(C)C)cc12	inconclusive: 4.11 µM [falling, partial curve, poor fit]
O=C(N/N=C/c1ccoc1)c1ccccc1Br	inactive
C=CCn1cccc(C(=O)Nc2ccc(C)cc2)c1=O	inconclusive: 2.91 µM [activator, full curve]
COc1ccc2c(Sc3ccccc3)c(C(=O)NCc3ccc(OC(C)C)cc3)[nH]c2c1	inconclusive: 9.2 µM [falling, single point]
CCCN1CCN(C(c2cc3cc(OCC)ccc3[nH]c2=O)c2nnnn2C2CCCCC2)CC1 (configuration not stated)	inactive
O=C(c1ccc(S(=O)(=O)NCC2CCCO2)cc1)N1CCc2ccccc21 (configuration not stated)	active: 25.9 µM
O=C(NCCc1ccc(F)cc1)c1n[nH]c2ccccc12	inconclusive: 16.4 µM [activator, partial curve]
COc1cccc2cc(-c3ccccc3)c(=O)oc12	inconclusive: 16.4 µM [activator, partial curve]
COc1ccc(-c2nc3ccc(NS(=O)(=O)c4ccccc4)cc3o2)cc1	inconclusive: 25.9 µM [falling, single point]
Cc1ccccc1NC(=O)n1ncc2cc(Cl)ccc21	inconclusive: 29.1 µM [activator, partial curve, poor fit]
COc1ccc(Cl)cc1NC(=O)C/C(C)=N/NC(=O)Cc1ccccc1	inconclusive: 25.9 µM [activator, single point]
COC(=O)C1=C(C)N(Cc2ccccc2)C(=NCc2ccccc2)N[C@H]1c1ccccc1	inactive

Structure (SMILES)	Potency
C/C(=N/OC(=O)C1CC12CCC2)c1ccc(Br)cc1 (configuration not stated)	inconclusive: 6.51 µM [activator, partial curve, poor fit]
COCCn1c(C)cc(C2=NNC(=NC3CC3)SC2)c1C	active: 0.58 µM
Cc1ccc(/C=C2\SC(=S)N(CCCC(=O)Nc3cccc(C(=O)O)c3)C2=O)cc1	inconclusive: 20.6 µM [falling, single point]
CC(C)(C)c1ccc(NC(=O)c2ccccc2)c([N+](=O)[O-])c1	inconclusive: 18.4 µM [activator, partial curve]
COc1ccc(CN2CCC(Oc3ccc(C(=O)N4CCCC4)cc3)CC2)c(F)c1	inactive
Cn1c(Cc2cccc3ccccc23)nnc1SCC(=O)N1CCN(c2ccccc2)CC1	inconclusive: 29.1 µM [falling, single point]
COCCn1c(C)cc(C(=O)CSc2nc(C)cc(C)c2C#N)c1C	inconclusive: 16.4 µM [falling, partial curve]
Cc1ccc(CNC(=O)C(=O)NCC2OCCN2S(=O)(=O)c2ccc(Cl)cc2)cc1 (configuration not stated)	inconclusive: 29.1 µM [falling, single point]
Cc1cccc(N2CCN(C(=O)c3ccc(CS(=O)c4cccc(Cl)c4)o3)CC2)c1C (configuration not stated)	inconclusive: 18.4 µM [falling, single point]
CC[C@]12c3[nH]c4ccc(Cl)cc4c3CCN1C(=O)[C@@H](CC(=O)NC/C=C(\C)CCC=C(C)C)C[C@@H]2C(=O)N1CCN(C(=O)c2ccco2)CC1	active: 6.51 µM
COc1ccc(CN(C(=O)Nc2cccc(Cl)c2)c2ccccn2)cc1OC	inactive
O=C(c1ccccc1)C1CCN(C(=O)c2ccco2)CC1	inconclusive: 8.2 µM [falling, partial curve, poor fit]
COC(=O)C1C2C=CC(C3CC23)C1C(=O)OCC(=O)c1ccccc1 (configuration not stated)	inactive
CSCCC(NC(=O)c1cccc(S(=O)(=O)N2CCOCC2)c1)c1nc2ccccc2[nH]1 (configuration not stated)	inactive
CCOc1cc(C(=S)N2CCOCC2)ccc1OC(=O)/C=C/c1ccc(OC)c(OC)c1	inactive
Cc1cc(C)c(S(=O)(=O)c2cccc(Cl)c2)c(=O)[nH]1	inconclusive: 18.4 µM [activator, single point]
O=C(/C=C/c1cccc(Oc2ccccc2)c1)N1CCOCC1	inactive
O=C(c1cccn2c(=O)c3cc(Cl)ccc3nc12)N1CCN(Cc2ccc3c(c2)OCO3)CC1	inconclusive: 29.1 µM [falling, single point]
Cc1sc2nc(SCc3nnc(-c4cccs4)o3)n(C3CCCC3)c(=O)c2c1C	inconclusive: 18.4 µM [falling, partial curve, poor fit]
CCCCOc1ccc(C(C)NC(=O)c2cccc(Nc3nc4ccccc4n4nnnc34)c2)cc1 (configuration not stated)	inconclusive: 2.06 µM [falling, partial curve, poor fit]
CCc1cccc(C)c1NC(=O)CCCSc1nc2ccccc2s1	inconclusive: 20.6 µM [falling, single point]
COc1ccc(C(=O)Nc2ccc(OCC(F)(F)C(F)F)c(C(F)(F)F)c2)cc1OC	inconclusive: 20 µM [falling, single point]
Cc1cccc2sc(N(CCCN(C)C)C(=O)c3ccco3)nc12	inconclusive: 29.1 µM [activator, single point]

Rewritten as labelled records: part of the list above
COc1ccc(CN(C(=O)Nc2cccc(Cl)c2)c2ccccn2)cc1OC
  Potency: inactive
CCc1cccc(C)c1NC(=O)CCCSc1nc2ccccc2s1
  Potency: inconclusive: 20.6 µM [falling, single point]
Cc1cccc2sc(N(CCCN(C)C)C(=O)c3ccco3)nc12
  Potency: inconclusive: 29.1 µM [activator, single point]

Continuation.

Structure (SMILES)	Potency
COc1cccc(NS(=O)(=O)c2cc(C)sc2C)c1	inconclusive: 25.9 µM [falling, single point]
CC(=O)Nc1ccc(NC(=O)C(c2ccccc2)c2ccccc2)cc1	inconclusive: 32.6 µM [falling, partial curve, poor fit]
Cc1nc2c(-c3ccccc3)c(C)[nH]n2c(=O)c1Cc1ccccc1	inconclusive: 23.1 µM [falling, single point]
Cc1ccc(NC(=O)C(=O)NCC(c2cccnc2)N2CCOCC2)cc1Cl (configuration not stated)	inconclusive: 20.6 µM [falling, single point]
Cc1ccc(NS(=O)(=O)c2ccc3c(c2)NC(=O)C(C)C(=O)N3)c(Cl)c1 (configuration not stated)	inconclusive: 29.1 µM [falling, single point]
CCCNC(=O)C(CC)NC(=O)c1cccc([N+](=O)[O-])c1 (configuration not stated)	inconclusive: 0.13 µM [falling, full curve, poor fit]
Nc1nc(-c2ccc(Cl)cc2)cc(C(F)(F)F)n1	inactive
COC(=O)C1=C(C)NC(=O)NC1c1ccc(-c2ccc(Cl)cc2)o1 (configuration not stated)	inconclusive: 14.6 µM [falling, partial curve]
COc1ccc(C(=O)Nc2nc3c(s2)CCCC3)cc1S(=O)(=O)N1CCCc2ccccc21	inconclusive: 9.2 µM [activator, single point]
O=C(CSc1ncnc2c1cnn2-c1ccccc1Cl)N1CCN(C(=O)c2ccco2)CC1	active: 14.6 µM
CC1CCC(NC(=O)N(CCCl)N=O)CC1 (configuration not stated)	inactive
COCCNC(=O)CCC(=O)N1Cc2cccc(OC)c2Oc2ncccc21	inconclusive: 5.8 µM [activator, partial curve]
O=C(CNc1ccc(Br)cc1)Nc1cccc(S(=O)(=O)N2CCCC2)c1	active: 20.6 µM
COc1ccc(CNC(=O)CCCN2C(=O)CSc3c2c(C)nn3-c2ccccc2)c(OC)c1	inconclusive: 10.3 µM [falling, partial curve, poor fit]
N#C/C(=N\Nc1ccc(F)cc1)C(=N)N1CCCCC1	inconclusive: 1.64 µM [activator, partial curve, poor fit]
Cc1ccc(-c2[nH]c3ccccc3c2SCCNC(=O)c2ccc(S(=O)(=O)N(C)C)cc2)cc1	inconclusive: 4.61 µM [falling, partial curve, poor fit]
Cc1ccc(SCC(=O)NC2CCCCCC2)cc1	inconclusive: 18.4 µM [activator, single point]
O=c1c(-c2nnc(SCc3ccc(Cl)cc3Cl)o2)cccn1Cc1ccccc1	inconclusive: 29.1 µM [falling, single point]
Cc1cn(C2CCCO2)c(=O)nc1N (configuration not stated)	inactive
COc1ccc(N=Cc2c(O)[nH]c3ccccc23)cc1	inconclusive: 0.291 µM [activator, full curve]
COc1ccc(CCNC(=O)c2cc(S(=O)(=O)N(C)c3ccccc3)ccc2Cl)cc1	inconclusive: 5.8 µM [activator, partial curve, poor fit]
